In the supplement of paper PMC10849652:
The list shows a part of the results.

Chains of the proteins cited; added tags and fusions are not shown. Lines headed by an entry give the natural chain unless they say otherwise; changes in a name come on top.
UniProt P20337: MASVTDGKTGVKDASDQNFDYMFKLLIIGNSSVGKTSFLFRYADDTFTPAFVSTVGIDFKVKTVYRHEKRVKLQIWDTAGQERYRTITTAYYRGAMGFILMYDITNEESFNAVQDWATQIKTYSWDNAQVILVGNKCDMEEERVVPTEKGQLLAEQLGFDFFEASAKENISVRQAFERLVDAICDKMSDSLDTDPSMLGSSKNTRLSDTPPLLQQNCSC
UniProt Q9H477: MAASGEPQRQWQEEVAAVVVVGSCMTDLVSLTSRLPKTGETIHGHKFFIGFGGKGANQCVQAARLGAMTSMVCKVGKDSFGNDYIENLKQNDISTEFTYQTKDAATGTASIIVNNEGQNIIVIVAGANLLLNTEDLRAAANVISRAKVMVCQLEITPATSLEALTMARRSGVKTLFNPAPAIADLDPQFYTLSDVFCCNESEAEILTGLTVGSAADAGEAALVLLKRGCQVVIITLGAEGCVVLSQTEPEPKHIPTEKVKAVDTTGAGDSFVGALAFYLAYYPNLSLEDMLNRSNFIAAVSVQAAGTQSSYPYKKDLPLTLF
UniProt Q15771: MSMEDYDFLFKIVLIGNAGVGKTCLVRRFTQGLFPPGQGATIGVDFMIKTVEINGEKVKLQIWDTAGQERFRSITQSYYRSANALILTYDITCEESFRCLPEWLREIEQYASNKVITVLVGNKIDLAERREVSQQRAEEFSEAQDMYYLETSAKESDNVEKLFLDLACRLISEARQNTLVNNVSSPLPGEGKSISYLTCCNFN
UniProt Q6VN20, whole entry, looked up: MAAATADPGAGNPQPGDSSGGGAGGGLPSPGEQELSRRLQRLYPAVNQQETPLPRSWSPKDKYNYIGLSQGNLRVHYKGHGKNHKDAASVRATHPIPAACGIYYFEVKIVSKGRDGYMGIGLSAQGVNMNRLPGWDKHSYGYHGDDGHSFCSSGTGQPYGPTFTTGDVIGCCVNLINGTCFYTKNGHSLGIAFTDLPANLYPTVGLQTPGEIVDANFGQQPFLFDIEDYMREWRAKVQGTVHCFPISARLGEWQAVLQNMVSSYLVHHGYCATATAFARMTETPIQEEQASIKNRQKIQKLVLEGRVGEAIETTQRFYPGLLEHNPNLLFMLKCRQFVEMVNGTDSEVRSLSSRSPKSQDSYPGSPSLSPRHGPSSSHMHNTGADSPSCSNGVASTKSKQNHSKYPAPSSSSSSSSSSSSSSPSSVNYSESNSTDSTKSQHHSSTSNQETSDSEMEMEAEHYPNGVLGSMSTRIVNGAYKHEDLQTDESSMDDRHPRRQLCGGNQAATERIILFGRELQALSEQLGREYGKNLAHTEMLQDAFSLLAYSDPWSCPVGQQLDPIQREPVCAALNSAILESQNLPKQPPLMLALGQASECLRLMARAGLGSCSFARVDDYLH
UniProt Q9NW13: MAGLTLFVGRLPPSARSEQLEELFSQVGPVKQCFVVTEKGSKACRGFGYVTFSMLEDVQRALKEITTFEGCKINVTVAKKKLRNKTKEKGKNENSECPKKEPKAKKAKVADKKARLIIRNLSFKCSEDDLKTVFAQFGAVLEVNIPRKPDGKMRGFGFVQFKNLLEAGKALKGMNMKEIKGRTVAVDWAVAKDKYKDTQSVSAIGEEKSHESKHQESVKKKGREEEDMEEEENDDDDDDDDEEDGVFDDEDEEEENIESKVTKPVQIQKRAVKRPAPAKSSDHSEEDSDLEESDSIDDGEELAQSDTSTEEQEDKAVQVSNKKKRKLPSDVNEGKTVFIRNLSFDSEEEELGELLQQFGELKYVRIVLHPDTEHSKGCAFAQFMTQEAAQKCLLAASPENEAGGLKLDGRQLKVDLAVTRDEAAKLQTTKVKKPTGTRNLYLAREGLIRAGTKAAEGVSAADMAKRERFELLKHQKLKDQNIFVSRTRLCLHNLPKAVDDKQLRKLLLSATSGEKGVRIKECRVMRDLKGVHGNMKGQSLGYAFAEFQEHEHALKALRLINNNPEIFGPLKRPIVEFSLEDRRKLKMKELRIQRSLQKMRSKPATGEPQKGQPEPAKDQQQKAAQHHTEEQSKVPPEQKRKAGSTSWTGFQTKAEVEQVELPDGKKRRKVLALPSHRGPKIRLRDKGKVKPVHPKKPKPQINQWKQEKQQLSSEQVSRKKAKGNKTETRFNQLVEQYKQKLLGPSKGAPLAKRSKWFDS
UniProt Q15311: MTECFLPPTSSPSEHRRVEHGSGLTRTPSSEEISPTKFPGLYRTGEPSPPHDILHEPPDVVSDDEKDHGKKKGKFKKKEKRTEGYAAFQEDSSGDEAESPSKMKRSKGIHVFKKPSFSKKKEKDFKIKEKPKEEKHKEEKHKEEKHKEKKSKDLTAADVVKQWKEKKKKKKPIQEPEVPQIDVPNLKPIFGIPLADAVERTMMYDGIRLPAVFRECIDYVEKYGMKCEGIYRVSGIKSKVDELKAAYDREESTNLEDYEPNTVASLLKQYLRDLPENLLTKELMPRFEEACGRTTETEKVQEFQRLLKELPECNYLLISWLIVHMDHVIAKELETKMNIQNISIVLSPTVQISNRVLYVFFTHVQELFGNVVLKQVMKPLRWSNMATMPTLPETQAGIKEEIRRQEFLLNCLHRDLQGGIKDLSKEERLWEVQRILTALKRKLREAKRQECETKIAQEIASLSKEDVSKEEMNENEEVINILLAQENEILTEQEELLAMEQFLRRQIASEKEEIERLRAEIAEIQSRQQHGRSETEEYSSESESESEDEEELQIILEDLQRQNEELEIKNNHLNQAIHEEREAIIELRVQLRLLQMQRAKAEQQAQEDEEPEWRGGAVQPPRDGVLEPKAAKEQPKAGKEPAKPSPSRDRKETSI
UniProt Q9BXF6: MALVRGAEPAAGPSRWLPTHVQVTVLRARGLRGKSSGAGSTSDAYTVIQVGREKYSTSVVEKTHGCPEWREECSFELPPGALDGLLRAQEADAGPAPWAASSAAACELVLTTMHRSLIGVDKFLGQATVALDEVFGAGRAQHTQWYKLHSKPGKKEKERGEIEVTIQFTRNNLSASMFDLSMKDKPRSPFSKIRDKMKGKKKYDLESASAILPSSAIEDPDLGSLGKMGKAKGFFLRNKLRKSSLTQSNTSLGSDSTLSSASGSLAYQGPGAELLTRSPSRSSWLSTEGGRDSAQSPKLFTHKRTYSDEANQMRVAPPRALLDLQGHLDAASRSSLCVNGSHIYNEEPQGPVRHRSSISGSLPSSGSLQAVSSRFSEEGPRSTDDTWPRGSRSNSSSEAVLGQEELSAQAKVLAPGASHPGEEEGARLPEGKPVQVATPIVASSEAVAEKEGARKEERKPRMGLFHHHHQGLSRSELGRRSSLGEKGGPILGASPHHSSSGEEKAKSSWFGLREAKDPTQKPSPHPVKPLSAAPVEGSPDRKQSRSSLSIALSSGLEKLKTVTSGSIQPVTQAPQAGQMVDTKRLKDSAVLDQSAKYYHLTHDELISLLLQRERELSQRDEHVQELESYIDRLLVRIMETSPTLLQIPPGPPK
UniProt Q86WH2: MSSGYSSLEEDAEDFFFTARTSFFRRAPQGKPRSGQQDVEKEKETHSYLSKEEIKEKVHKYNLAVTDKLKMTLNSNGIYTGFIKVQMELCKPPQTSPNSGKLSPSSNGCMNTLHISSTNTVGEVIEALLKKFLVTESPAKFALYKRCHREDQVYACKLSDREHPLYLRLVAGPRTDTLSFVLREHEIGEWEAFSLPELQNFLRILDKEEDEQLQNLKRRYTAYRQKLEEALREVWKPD
UniProt O95716: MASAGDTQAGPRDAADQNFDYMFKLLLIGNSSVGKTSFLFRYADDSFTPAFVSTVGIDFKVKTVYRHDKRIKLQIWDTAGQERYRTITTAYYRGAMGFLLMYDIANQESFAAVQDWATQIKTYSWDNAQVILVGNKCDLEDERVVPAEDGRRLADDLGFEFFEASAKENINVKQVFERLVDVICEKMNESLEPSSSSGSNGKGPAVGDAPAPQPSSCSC
UniProt Q15291, whole entry, looked up: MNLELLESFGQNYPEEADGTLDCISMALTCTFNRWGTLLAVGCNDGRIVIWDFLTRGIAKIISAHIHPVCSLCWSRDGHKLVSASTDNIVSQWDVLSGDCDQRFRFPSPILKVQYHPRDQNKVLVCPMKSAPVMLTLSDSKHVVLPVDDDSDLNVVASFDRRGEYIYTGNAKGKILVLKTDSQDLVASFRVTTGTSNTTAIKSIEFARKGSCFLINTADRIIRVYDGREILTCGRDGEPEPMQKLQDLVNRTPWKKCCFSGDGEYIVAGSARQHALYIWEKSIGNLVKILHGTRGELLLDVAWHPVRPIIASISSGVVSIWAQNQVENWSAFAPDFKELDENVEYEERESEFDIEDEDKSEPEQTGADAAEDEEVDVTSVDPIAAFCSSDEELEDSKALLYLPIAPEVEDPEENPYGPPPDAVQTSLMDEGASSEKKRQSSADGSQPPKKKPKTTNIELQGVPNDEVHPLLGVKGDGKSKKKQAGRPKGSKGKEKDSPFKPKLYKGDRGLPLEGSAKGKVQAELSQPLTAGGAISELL
UniProt Q9H6Z4: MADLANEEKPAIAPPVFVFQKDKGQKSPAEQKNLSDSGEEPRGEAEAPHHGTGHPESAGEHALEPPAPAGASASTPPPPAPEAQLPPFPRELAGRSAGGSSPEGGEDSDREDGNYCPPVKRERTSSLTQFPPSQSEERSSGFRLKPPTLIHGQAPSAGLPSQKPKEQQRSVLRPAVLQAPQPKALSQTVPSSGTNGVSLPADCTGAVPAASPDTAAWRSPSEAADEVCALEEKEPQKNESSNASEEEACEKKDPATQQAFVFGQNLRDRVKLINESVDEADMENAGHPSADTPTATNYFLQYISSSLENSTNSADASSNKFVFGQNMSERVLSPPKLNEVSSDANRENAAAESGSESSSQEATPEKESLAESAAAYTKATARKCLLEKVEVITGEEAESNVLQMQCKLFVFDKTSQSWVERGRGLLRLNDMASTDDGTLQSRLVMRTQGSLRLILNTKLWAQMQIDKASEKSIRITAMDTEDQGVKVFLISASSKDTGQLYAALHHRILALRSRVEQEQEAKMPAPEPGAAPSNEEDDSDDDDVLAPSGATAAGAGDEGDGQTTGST
UniProt Q8TEU7: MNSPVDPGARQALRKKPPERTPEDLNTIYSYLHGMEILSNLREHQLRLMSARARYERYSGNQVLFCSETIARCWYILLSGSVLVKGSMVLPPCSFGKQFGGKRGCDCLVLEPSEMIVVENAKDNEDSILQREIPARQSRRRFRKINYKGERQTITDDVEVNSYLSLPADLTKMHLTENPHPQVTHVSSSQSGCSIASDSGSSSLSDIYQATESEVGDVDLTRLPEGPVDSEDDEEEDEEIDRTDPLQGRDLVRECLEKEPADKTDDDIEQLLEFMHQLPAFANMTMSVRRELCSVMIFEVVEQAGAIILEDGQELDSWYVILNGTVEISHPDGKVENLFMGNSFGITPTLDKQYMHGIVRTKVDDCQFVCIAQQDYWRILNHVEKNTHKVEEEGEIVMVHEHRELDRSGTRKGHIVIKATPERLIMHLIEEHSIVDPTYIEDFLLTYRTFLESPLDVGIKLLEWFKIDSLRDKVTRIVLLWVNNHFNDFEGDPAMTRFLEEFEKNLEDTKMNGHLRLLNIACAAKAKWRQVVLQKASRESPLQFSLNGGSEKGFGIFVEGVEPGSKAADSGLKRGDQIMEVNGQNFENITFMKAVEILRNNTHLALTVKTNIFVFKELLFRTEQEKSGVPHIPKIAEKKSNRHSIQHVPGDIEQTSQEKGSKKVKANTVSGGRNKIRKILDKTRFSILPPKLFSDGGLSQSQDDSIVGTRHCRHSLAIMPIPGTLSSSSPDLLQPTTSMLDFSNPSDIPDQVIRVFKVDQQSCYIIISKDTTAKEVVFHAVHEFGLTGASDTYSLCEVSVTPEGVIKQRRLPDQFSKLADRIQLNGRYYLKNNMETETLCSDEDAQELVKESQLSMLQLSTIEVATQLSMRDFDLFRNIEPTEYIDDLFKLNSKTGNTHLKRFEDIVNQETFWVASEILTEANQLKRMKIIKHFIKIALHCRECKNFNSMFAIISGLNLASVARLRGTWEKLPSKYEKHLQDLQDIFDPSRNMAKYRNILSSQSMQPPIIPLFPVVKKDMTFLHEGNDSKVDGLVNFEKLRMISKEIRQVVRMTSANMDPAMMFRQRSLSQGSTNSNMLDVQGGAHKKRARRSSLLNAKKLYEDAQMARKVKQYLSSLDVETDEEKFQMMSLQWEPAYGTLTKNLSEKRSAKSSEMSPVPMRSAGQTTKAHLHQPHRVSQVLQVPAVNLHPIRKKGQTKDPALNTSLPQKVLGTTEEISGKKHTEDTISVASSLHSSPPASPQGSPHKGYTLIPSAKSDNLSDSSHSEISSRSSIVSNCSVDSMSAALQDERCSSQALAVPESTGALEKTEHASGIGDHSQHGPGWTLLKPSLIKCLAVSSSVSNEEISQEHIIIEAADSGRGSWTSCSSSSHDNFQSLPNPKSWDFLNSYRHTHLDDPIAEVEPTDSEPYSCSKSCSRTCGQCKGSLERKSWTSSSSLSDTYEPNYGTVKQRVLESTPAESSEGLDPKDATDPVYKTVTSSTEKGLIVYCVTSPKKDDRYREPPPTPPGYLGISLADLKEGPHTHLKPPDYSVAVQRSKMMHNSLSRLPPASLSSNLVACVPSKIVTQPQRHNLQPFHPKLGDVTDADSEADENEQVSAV

What follows are targets tested with COc1cc2nc(-c3cc(F)ccc3O)nc(N[C@@H]3CNC[C@H]3C(C)(C)O)c2cc1OC (assay: log2 fold change, soluble protein after heating vs DMSO (PISA); higher = thermal stabilisation; K562 cells, 10 uM, 30 min; active = over 0.2 and 3.5 SD of the protein, either way, in both replicates (recomputed)).
Method in brief: (§1)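 Soluble protein was quantified by TMTpro 16plex LC-MS/MS after channel sums were equalised. It was obtained as the supernatant after 21,000xg for 90 min from pooled aliquots of K562 cells (2×10^6 cells/mL, 10 μM compound, 30 min) heated for 3 min across 48°C-58°C and extracted in PBS with 0.5% NP-40 at 4°C. Thermal stability values are relative to control samples and come from duplicates. They are given as log2 fold changes.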

Row | Target | log2 fold change
1 | RAB3B (UniProt P20337) | inactive: -0.08
2 | RBKS (UniProt Q9H477) | inactive: -0.051
3 | RAB3IL1 (UniProt E9PK89) | inactive: 0.097
4 | RAB30 (UniProt Q15771) | inactive: 0.047
5 | RANBP10 (UniProt Q6VN20) | inactive: 0
6 | RBM28 (UniProt Q9NW13) | inactive: 0.045
7 | RBBP6 (UniProt Q7Z6E9) | inactive: -0.099
8 | RBBP8 isoform 2 (UniProt Q99708) | inactive: 0.178
9 | RALBP1 (UniProt Q15311) | inactive: 0.217
10 | RAB11FIP5 (UniProt Q9BXF6) | inactive: -0.03
11 | RAP1B (UniProt F5GWU8) | inactive: 0.207
12 | RBFA (UniProt Q8N0V3) | inactive: -0.129
13 | RASSF3 (UniProt Q86WH2) | inactive: 0.12
14 | RAB3D (UniProt O95716) | inactive: 0.002
15 | RBBP5 isoform 2 (UniProt Q15291) | inactive: -0.068

These targets were tested with COc1cc2ncnc(Nc3ccc(F)c(Cl)c3)c2cc1OCCCN1CCOCC1 [gefitinib] in the same assay as above.
Method in brief: as §1

Row | Target | log2 fold change
16 | RAI1 (UniProt Q7Z5J4) | inactive: 0.334
17 | RAB3IL1 (UniProt E9PK89) | inactive: -0.034
18 | RBL1 (UniProt P28749) | inactive: -0.11
19 | RANBP3 isoform 2 (UniProt Q9H6Z4) | inactive: 0.012
20 | RAB30 (UniProt Q15771) | inactive: 0.087
21 | RANBP10 (UniProt Q6VN20) | inactive: 0.005
22 | RBBP6 (UniProt Q7Z6E9) | inactive: -0.02
23 | RAPGEF6 isoform 4 (UniProt Q8TEU7) | inactive: 0.121
24 | RASSF3 (UniProt Q86WH2) | inactive: 0.035
25 | RAB18 (UniProt H0Y6T8) | inactive: 0.038
26 | RAD23A isoform 3 (UniProt P54725) | inactive: -0.073
27 | RAB3D (UniProt O95716) | inactive: 0.243
28 | RBBP5 isoform 2 (UniProt Q15291) | inactive: -0.215

Each target was assayed with COc1cccc2cc(-c3nc([C@H]4CC[C@H](C(=O)O)CC4)n4ncnc(N)c34)[nH]c12 in the same assay as above.
Method in brief: as §1

Row | Target | log2 fold change
29 | RAI1 (UniProt Q7Z5J4) | inactive: -0.097
30 | RAPGEF1 isoform 3 (UniProt Q13905) | inactive: 0.151
31 | RBKS (UniProt Q9H477) | inactive: 0.006
32 | RALGPS2 (UniProt Q86X27) | inactive: 0.132
33 | RBBP9 (UniProt O75884) | inactive: 0.089
34 | RANBP3 isoform 2 (UniProt Q9H6Z4) | inactive: 0.037
35 | RAB30 (UniProt Q15771) | inactive: 0.079
36 | RANBP10 (UniProt Q6VN20) | inactive: 0.031
37 | RBBP4 isoform 2 (UniProt Q09028) | inactive: 0.031
38 | RBM28 (UniProt Q9NW13) | inactive: -0.01
39 | RBBP6 (UniProt Q7Z6E9) | inactive: 0.146
40 | RAPGEF6 isoform 4 (UniProt Q8TEU7) | inactive: -0.403
41 | RASSF3 (UniProt Q86WH2) | inactive: -0.003
42 | RAB18 (UniProt H0Y6T8) | inactive: 0.141
43 | RAB3D (UniProt O95716) | inactive: -0.07
44 | RBBP5 isoform 2 (UniProt Q15291) | inactive: 0.055

What follows are targets tested with CS(=O)(=O)CCNCc1ccc(-c2ccc3ncnc(Nc4ccc(OCc5cccc(F)c5)c(Cl)c4)c3c2)o1 [lapatinib] in the same assay as above.
Method in brief: as §1

Row | Target | log2 fold change
45 | RAB3B (UniProt P20337) | inactive: -0.415
46 | RBKS (UniProt Q9H477) | inactive: 0.009
47 | RAB3IL1 (UniProt E9PK89) | inactive: 0.063
48 | RAB30 (UniProt Q15771) | inactive: 0.021
49 | RANBP10 (UniProt Q6VN20) | inactive: 0
50 | RBM28 (UniProt Q9NW13) | inactive: -0.116
51 | RBBP6 (UniProt Q7Z6E9) | inactive: 0.101
52 | RBBP8 isoform 2 (UniProt Q99708) | inactive: -0.012
53 | RALBP1 (UniProt Q15311) | inactive: 0.015
54 | RAB11FIP5 (UniProt Q9BXF6) | inactive: 0.184
55 | RAP1B (UniProt F5GWU8) | inactive: -0.043
56 | RBFA (UniProt Q8N0V3) | inactive: 0.093
57 | RASSF3 (UniProt Q86WH2) | inactive: -0.028
58 | RAB3D (UniProt O95716) | inactive: 0.002
59 | RBBP5 isoform 2 (UniProt Q15291) | inactive: 0.09

These targets were tested with CS(=O)(=O)N1CCN(Cc2cc3nc(-c4cccc5[nH]ncc45)nc(N4CCOCC4)c3s2)CC1 [pictilisib] in the same assay as above.
Method in brief: as §1

Row | Target | log2 fold change
60 | RAB3B (UniProt P20337) | inactive: 0.303
61 | RALGPS2 (UniProt Q86X27) | inactive: 0.165
62 | RAB3IL1 (UniProt E9PK89) | inactive: -0.075
63 | RBL1 (UniProt P28749) | inactive: 0.554
64 | RANBP3 isoform 2 (UniProt Q9H6Z4) | inactive: 0.068
65 | RAB30 (UniProt Q15771) | inactive: -0.074
66 | RANBP10 (UniProt Q6VN20) | inactive: 0.024
67 | RBBP4 isoform 2 (UniProt Q09028) | inactive: 0.078
68 | RBBP6 (UniProt Q7Z6E9) | inactive: 0.016
69 | RAB28 (UniProt P51157) | inactive: 0.113
70 | RASA3 (UniProt Q14644) | inactive: 0.558
71 | RALBP1 (UniProt Q15311) | inactive: 0.116
72 | RAPGEF6 isoform 4 (UniProt Q8TEU7) | inactive: -0.196
73 | RASSF3 (UniProt Q86WH2) | inactive: 0
74 | RAD23A isoform 3 (UniProt P54725) | inactive: 0.364
75 | RAB3D (UniProt O95716) | inactive: -0.153
76 | RBBP5 isoform 2 (UniProt Q15291) | inactive: 0.118
